The source of these data is the supplement of paper PMC12462457.

Structures can show the parent of a compound that is named as a salt. ± gives the standard deviation of the averaged measurements. The list shows a part of the results. Repeats in this data set agree poorly, so a single value says little.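 Cell counts came from imaging DAPI-stained nuclei, excluding as dead any cells lacking phalloidin-stained cytoplasm. Counts per well were normalized to the median vehicle-well count on that plate, and the values were averaged over two replicate plates.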

For this experiment, the system named is OVCAR8. The experiment is described as follows: cell count relative to DMSO vehicle (fold change); higher = more surviving senescent cells (less killing). The settings on record: senescence inducer: cisplatin 10 µM 48 h, then 6 d recovery (CP senescent), exposure time 24 h.

The molecule `CC[C@H](CC#N)OC(=O)N[C@@H](C)c1cccc(NC(=O)Nc2ccc(-c3cnco3)c(OC)c2)c1` displayed a cell count (compound dose 1 µM) of 0.845 ± 0.17 and a cell count (compound dose 5 µM) of 0.86 ± 0.15.

In turn, `CN1CCC(Nc2nc(Nc3ccc(Oc4ccccc4)cc3)c3c(=O)[nH]cc(Br)c3n2)CC1` gave a cell count (compound dose 1 µM) of 1.24 ± 0.15 and a cell count (compound dose 5 µM) of 0.0455 ± 0.036.

Take `CC(=O)O[C@H]1C(=O)[C@@]2(C)[C@H]([C@H](OC(=O)c3ccccc3)[C@]3(O)C[C@H](OC(=O)[C@H](O)[C@@H](NC(=O)c4ccccc4)c4ccccc4)C(C)=C1C3(C)C)[C@]1(OC(C)=O)CO[C@@H]1C[C@@H]2O`: the cell count amounted to 0.761 ± 0.039 (compound dose 1 µM) and 0.633 ± 0.18 (compound dose 5 µM).

On to `COc1cccc2c1C(=O)c1c(O)c3c(c(O)c1C2=O)C[C@@](O)(C(=O)CO)C[C@@H]3O[C@H]1C[C@H](N)[C@@H](O)[C@H](C)O1` [Epirubicin (hydrochloride)], for which the cell count reads like this: (compound dose 1 µM) 0.634 ± 0.18; (compound dose 5 µM) 0.523 ± 0.023.

Consider `O=[N+]([O-])c1ccc(Nc2ccccc2-c2ccccc2)c2nonc12`, for which the cell count runs as follows: (compound dose 1 µM) 0.955 ± 0.09; (compound dose 5 µM) 0.857 ± 0.14.

`COc1ccc2[nH]c3c(-c4cccc5ccccc45)nccc3c2c1` had a cell count (compound dose 1 µM) of 0.712 ± 0.018 and a cell count (compound dose 5 µM) of 0.63 ± 0.0071.

Consider `O=C(N[C@H]1CCc2cc(F)cc(F)c2NC1=O)c1n[nH]c(Cc2ccccc2)n1`, for which the cell count is, setting by setting: (compound dose 1 µM) 1.29 ± 0.14; (compound dose 5 µM) 1.009 ± 0.0042.

Turning to `N#Cc1c(N2CCCC2)nc(N)c2c(N)nc(N3CCCC3)cc12`, the cell count is, setting by setting: (compound dose 1 µM) 0.987 ± 0.094; (compound dose 5 µM) 0.915 ± 0.045.

For `COC(=O)CC[C@H](NC(=O)[C@H](Cc1c[nH]c2ccccc12)NC(=O)OCc1ccccc1)C(=O)N[C@@H](Cc1cnc[nH]1)C(=O)N[C@@H](CC(=O)OC)C(=O)CF`, the cell count reads like this: (compound dose 1 µM) 1.13 ± 0.026; (compound dose 5 µM) 0.851 ± 0.073.

Turning to `Oc1ccc(-c2nc(-c3ccc(F)cc3)c(-c3ccncc3)[nH]2)cc1`, the cell count came to 1.11 ± 0.098 (compound dose 1 µM) and 1.01 ± 0.16 (compound dose 5 µM).

As for `CC(C)CN(CC(=O)N1CCN(CC(OCc2ccc3ccccc3c2)c2ccc(Cl)cc2Cl)CC1)CC(C)C` (stereo not given) [LYN-1604 (dihydrochloride)], the cell count by setting is: (compound dose 1 µM) 1.2 ± 0.078; (compound dose 5 µM) 0.948 ± 0.29.

`O=C(O)CCCCC(CCSCc1ccccc1)SCc1ccccc1` (stereo not given) [Devimistat]: the cell count runs as follows: (compound dose 1 µM) 1.14 ± 0.11; (compound dose 5 µM) 0.865 ± 0.16.

Take `O=C(O)C1=CO[C@@H](O[C@@H]2O[C@H](CO)[C@@H](O)[C@H](O)[C@H]2O)[C@@H]2C(CO)=CC[C@H]12` [Geniposidic acid]: the cell count by setting is: (compound dose 1 µM) 0.995 ± 0.15; (compound dose 5 µM) 1.04 ± 0.03.

As to `O=C(CCCCCCC(=O)Nc1ccc(CN[C@H](C(=O)OC2CCCC2)c2ccccc2)cc1)NO` [Tefinostat], the cell count reads like this: (compound dose 1 µM) 0.963 ± 0.096; (compound dose 5 µM) 0.453 ± 0.14.

`CCCCCNC(=N)N/N=C/c1c[nH]c2ccc(OC)cc12` showed a cell count (compound dose 1 µM) of 0.752 ± 0.042 and a cell count (compound dose 5 µM) of 0.831 ± 0.013.

Consider `COc1c(C)c2c(c(O)c1C/C=C(\C)CCC(=O)O)C(=O)OC2`, for which the cell count reads like this: (compound dose 1 µM) 1.18 ± 0.29; (compound dose 5 µM) 0.715 ± 0.38.

As for `Cc1cc(Cl)ccc1OCCCC(=O)NO` [Droxinostat], the cell count came to 0.886 ± 0.083 (compound dose 1 µM) and 0.418 ± 0.2 (compound dose 5 µM).

Take `O=C(c1ccc(/C=C/c2n[nH]c3ccccc23)cc1)N1CCNCC1`: the cell count is, setting by setting: (compound dose 1 µM) 1.43 ± 0.24; (compound dose 5 µM) 1.38 ± 0.15.

Take `C/C(=C\C(=O)Nc1ccccc1C(=O)O)c1ccc2ccccc2c1`: the cell count is, setting by setting: (compound dose 1 µM) 1.07 ± 0.28; (compound dose 5 µM) 1.19 ± 0.092.

For `O=C1c2ccccc2-c2nc3nnnn3nc21.O=C1c2ccccc2-c2nn3nnnc3nc21`, the cell count runs as follows: (compound dose 1 µM) 0.0485 ± 0.018; (compound dose 5 µM) 0.0595 ± 0.016.

For `Oc1cc2c(cc1O)CN(C(=S)NCCc1ccc(Cl)cc1)CCC2` [Capsazepine], the cell count (compound dose 1 µM) was 1.21 ± 0.13 and the cell count (compound dose 5 µM) was 0.932 ± 0.086.

Turning to `CC(=O)NC1=NN(C(C)=O)C(C)(c2ccccc2)S1` (racemic) [K858 (Racemic)], the cell count runs as follows: (compound dose 1 µM) 1.16 ± 0.073; (compound dose 5 µM) 1.089 ± 0.0021.

On to `O=C(O)COc1ccccc1C(Nc1ccccn1)c1cc(Cl)c2cccnc2c1O` (stereo not given), for which the cell count was 0.585 ± 0.24 (compound dose 1 µM) and 0.805 ± 0.022 (compound dose 5 µM).

With `O=C1CCC[C@@H]2[C@H]3CCC[N+]4([O-])CCC[C@@H](CN12)[C@@H]34` (stereo not given in full) [Oxymatrine], the cell count was determined as 1.03 ± 0.011 (compound dose 1 µM) and 0.614 ± 0.075 (compound dose 5 µM).

In the case of `Cc1c(C)c2c(c(C)c1O)CCC(C)(C(=O)O)O2` (stereo not given), the cell count reads like this: (compound dose 1 µM) 0.803 ± 0.044; (compound dose 5 µM) 0.925 ± 0.26.

Regarding `CC[C@H](C)C(=O)O[C@H]1C[C@@H](C)C=C2C=C[C@H](C)[C@H](CC[C@@H]3C[C@@H](O)CC(=O)O3)[C@H]21` [Lovastatin], the cell count by setting is: (compound dose 1 µM) 0.903 ± 0.1; (compound dose 5 µM) 0.459 ± 0.12.

Take `O=c1cc(-c2ccccc2)oc2cc(O)c(O)c(O)c12`: the cell count is, setting by setting: (compound dose 1 µM) 1.08 ± 0.28; (compound dose 5 µM) 0.843 ± 0.057.

For `CCN(CC)CCCNc1cc2nc3n(c(=O)c2cc1F)CC/C3=C\c1ccc(C(C)C)cc1`, the cell count by setting is: (compound dose 1 µM) 1.14 ± 0.18; (compound dose 5 µM) 1.13 ± 0.041.

Consider `O=C(O[C@@H]1O[C@@H]2COC(=O)c3cc(O)c(O)c(O)c3-c3c(cc(O)c(O)c3O)C(=O)O[C@H]([C@H]1O)[C@@H]2O)c1cc(O)c(O)c(O)c1` [Corilagin], for which the cell count reads like this: (compound dose 1 µM) 1.2 ± 0.18; (compound dose 5 µM) 0.947 ± 0.052.

In the case of `COC(=O)Nc1ccc(-c2nc(N3CCOCC3)c3cnn(C4CCN(C(=O)OC)CC4)c3n2)cc1`, the cell count by setting is: (compound dose 1 µM) 1.08 ± 0.16; (compound dose 5 µM) 0.826 ± 0.13.

For the molecule `C[C@H](CC(=O)C[C@@H](C)[C@H]1C[C@H](O)[C@@]2(C)C3=C(C(=O)C[C@]12C)[C@@]1(C)CCC(=O)C(C)(C)[C@@H]1C[C@@H]3O)C(=O)O` [Ganoderic acid A], the cell count is, setting by setting: (compound dose 1 µM) 1.11 ± 0.019; (compound dose 5 µM) 0.832 ± 0.053.

For `COc1cc([C@H]2C(C#N)=C(N)Oc3c2ccc(N)c3N)cc(Br)c1OC` [Crolibulin], the cell count (compound dose 1 µM) is 0.874 ± 0.075 and the cell count (compound dose 5 µM) is 0.787 ± 0.1.

Consider `CC(C)n1c(/C=C/C(O)CC(O)CC(=O)O)c(-c2ccc(F)cc2)c2ccccc21` (stereo not given) [Fluvastatin (sodium)], for which the cell count reads like this: (compound dose 1 µM) 1.13 ± 0.21; (compound dose 5 µM) 0.583 ± 0.14.

`COc1ccc2c(c1)-c1nn(CCCN(C)C)c3ccc([N+](=O)[O-])c(c13)N2` [Pyrazoloacridine]: the cell count by setting is: (compound dose 1 µM) 1.21 ± 0.052; (compound dose 5 µM) 0.955 ± 0.26.

With `O=C(O)c1cc(=O)cc(C(=O)O)o1` [Chelidonic acid], the cell count (compound dose 1 µM) came to 0.939 ± 0.0099 and the cell count (compound dose 5 µM) amounted to 0.663 ± 0.22.
